Laboratory results as given in paper PMC10510122.
These are yes or no findings as the source states them, for the method shown. Binding seen in cells or lysates may run through a third protein. Here binding means that the protein was enriched with, or labelled near, the bait; the list need not be complete.

The chains behind the UniProt entries cited, without tags or fusion partners. Where a name states a change or a piece, a line headed by the entry shows the natural chain unless it says otherwise. Residues count along the entry.
UniProt P10451, residues 17-314: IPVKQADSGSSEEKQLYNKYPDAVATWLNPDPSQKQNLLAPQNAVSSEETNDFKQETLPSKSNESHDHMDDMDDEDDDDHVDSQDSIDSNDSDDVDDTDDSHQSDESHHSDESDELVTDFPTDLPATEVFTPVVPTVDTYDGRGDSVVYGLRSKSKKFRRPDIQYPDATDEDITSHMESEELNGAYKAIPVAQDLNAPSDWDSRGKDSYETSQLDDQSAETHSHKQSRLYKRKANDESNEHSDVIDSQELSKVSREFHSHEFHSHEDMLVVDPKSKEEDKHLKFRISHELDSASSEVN
UniProt P16070, residues 21-742: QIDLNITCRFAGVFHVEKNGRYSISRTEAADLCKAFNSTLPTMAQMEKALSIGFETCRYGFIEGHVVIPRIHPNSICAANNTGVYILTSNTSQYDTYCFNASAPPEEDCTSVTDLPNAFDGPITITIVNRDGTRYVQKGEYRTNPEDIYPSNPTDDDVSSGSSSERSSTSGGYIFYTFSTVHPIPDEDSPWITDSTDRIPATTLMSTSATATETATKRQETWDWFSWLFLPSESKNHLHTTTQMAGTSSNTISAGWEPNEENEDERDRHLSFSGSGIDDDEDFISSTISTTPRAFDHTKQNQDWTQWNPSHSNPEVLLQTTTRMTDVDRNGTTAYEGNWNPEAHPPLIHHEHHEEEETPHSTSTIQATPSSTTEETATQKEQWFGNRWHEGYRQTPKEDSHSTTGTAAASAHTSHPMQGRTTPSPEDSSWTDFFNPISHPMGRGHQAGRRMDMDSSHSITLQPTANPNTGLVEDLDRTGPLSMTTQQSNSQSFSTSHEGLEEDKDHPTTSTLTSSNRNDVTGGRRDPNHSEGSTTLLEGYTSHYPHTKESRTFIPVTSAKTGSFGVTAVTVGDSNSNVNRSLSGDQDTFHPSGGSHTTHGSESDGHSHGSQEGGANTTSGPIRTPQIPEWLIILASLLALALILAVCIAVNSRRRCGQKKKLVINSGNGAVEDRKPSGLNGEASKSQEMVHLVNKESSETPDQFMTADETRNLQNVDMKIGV
UniProt P05556: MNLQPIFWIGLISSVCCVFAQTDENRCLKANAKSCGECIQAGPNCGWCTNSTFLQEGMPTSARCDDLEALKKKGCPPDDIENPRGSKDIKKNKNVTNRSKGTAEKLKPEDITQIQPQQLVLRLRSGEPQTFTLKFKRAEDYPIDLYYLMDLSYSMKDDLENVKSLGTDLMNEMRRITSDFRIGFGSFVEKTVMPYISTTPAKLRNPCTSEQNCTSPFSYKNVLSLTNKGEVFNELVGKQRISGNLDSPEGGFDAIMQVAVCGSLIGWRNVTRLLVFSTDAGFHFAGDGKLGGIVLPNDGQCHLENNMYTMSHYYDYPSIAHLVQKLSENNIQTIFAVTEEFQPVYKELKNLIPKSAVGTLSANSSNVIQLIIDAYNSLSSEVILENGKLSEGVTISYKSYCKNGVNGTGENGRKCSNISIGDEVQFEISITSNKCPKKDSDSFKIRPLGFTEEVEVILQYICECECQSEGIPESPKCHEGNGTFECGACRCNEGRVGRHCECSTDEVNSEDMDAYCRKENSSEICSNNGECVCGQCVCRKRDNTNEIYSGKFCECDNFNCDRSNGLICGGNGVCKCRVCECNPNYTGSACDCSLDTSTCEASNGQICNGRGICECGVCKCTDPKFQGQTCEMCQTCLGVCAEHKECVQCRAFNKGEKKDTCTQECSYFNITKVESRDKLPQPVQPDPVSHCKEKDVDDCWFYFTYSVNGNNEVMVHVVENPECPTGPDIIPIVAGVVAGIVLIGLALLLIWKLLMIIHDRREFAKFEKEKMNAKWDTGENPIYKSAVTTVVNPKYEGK
UniProt O43795: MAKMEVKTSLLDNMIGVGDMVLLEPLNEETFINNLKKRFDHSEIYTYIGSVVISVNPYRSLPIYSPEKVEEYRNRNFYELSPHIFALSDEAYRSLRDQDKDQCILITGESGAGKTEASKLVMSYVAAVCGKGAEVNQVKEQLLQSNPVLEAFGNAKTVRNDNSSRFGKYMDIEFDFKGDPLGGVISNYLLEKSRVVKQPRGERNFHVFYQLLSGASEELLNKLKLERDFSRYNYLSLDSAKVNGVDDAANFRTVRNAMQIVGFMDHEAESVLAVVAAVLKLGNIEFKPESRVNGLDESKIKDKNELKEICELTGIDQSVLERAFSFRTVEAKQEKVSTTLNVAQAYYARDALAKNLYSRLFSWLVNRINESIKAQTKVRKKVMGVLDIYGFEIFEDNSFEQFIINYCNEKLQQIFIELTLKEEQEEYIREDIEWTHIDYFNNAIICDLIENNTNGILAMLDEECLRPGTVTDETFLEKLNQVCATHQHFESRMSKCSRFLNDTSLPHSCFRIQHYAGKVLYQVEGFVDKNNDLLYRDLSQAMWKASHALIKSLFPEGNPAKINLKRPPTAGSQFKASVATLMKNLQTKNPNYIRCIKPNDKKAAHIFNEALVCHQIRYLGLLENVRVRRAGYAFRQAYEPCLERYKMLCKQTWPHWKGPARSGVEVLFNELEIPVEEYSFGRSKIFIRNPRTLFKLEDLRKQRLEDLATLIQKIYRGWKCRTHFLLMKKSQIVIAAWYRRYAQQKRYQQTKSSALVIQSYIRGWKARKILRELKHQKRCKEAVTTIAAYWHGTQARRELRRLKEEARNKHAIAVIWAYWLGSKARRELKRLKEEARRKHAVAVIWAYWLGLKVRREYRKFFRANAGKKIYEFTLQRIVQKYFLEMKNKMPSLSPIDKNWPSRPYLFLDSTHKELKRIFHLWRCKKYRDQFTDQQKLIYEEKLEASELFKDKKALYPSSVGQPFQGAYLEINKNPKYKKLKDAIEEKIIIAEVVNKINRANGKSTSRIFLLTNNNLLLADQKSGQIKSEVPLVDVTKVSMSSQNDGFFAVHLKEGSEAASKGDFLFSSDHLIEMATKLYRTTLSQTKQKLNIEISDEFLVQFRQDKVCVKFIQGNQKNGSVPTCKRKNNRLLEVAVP

B1: JUP (protein, UniProt P14923 1-745)
chain: MEVMNLMEQPIKVTEWQQTYTYDSGIHSGANTCVPSVSSKGIMEEDEACGRQYTLKKTTTYTQGVPPSQGDLEYQMSTTARAKRVREAMCPGVSGEDSSLLLATQVEGQATNLQRLAEPSQLLKSAIVHLINYQDDAELATRALPELTKLLNDEDPVVVTKAAMIVNQLSKKEASRRALMGSPQLVAAVVRTMQNTSDLDTARCTTSILHNLSHHREGLLAIFKSGGIPALVRMLSSPVESVLFYAITTLHNLLLYQEGAKMAVRLADGLQKMVPLLNKNNPKFLAITTDCLQLLAYGNQESKLIILANGGPQALVQIMRNYSYEKLLWTTSRVLKVLSVCPSNKPAIVEAGGMQALGKHLTSNSPRLVQNCLWTLRNLSDVATKQEGLESVLKILVNQLSVDDVNVLTCATGTLSNLTCNNSKNKTLVTQNSGVEALIHAILRAGDKDDITEPAVCALRHLTSRHPEAEMAQNSVRLNYGIPAIVKLLNQPNQWPLVKATIGLIRNLALCPANHAPLQEAAVIPRLVQLLVKAHQDAQRHVAAGTQQPYTDGVRMEEIVEGCTGALHILARDPMNRMEIFRLNTIPLFVQLLYSSVENIQRVAAGVLCELAQDKEAADAIDAEGASAPLMELLHSRNEGTATYAAAVLFRISEDKNPDYRKRVSVELTNSLFKHDPAAWEAAQSMIPINEPYGDDMDATYRPMYSSDVPLDPLEMHMDMDGDYPIDTYSDGLRPPYPTADHMLA

Target: Osteopontin (OPN), recombinant (not stated (human or mouse recombinant OPN bought)) (UniProt P10451)
Assay: affinity purification with mass spectrometry; A549 cells treated with OPN (1 μg/ml) or not for 48 h, lysed; OPN co-IP with the Thermo Scientific Pierce Co-IP kit; the co-IP protein mix analysed by mass spectrometry; only the target purified

binding, binds:
CD44 (from UniProt P16070 21-742) (receptor)
ITGB1 (from UniProt P05556 21-798) (receptor)
MYO1B (from UniProt O43795 1-1136)
B1
